{"source": "patent US20230190871A1", "about": "“METHODS AND COMPOSITIONS FOR TREATMENT OF VIRAL INFECTIONS” (priority 2020, published 2023)", "type_in_all_cases": "cell-based", "key": {"EGFP expression": {"test_system": "EGFP expression", "experiment": "doxycycline-induced EGFP reporter expression (microscopy / flow cytometry) in transduced Vero-E6 cells", "settings": "Naive Vero E6; 48 hours post doxycycline treatment (Day 2); 0-100 ng/mL"}, "[1]": {"test_system": "c19orf66 protein expression", "experiment": "doxycycline-induced c19orf66 protein expression by western blot in transduced Vero-E6 cells", "settings": "for c19orf66 expression by western blot: Day 4"}, "[2]": {"test_system": "SARS CoV-2 (USA_WA1/2020)", "settings": "cells with viral vector carrying the inducible expression system (summary statement)"}}, "note": "At least one compound was matched to its structure with a doubt left.", "data": [{"smiles": "C[C@H]1c2cccc(O)c2C(=O)C2=C(O)[C@]3(O)C(=O)C(C(N)=O)=C(O)[C@@H](N(C)C)[C@@H]3[C@@H](O)[C@@H]21", "note": "[doxycycline]", "values": [{"measurement": "EGFP", "setting": "EGFP expression", "value": "None"}, {"measurement": "c19orf66 expression by western blot", "setting": "[1]; bulk cells, 10 ng/mL doxycycline", "value": "observed"}, {"measurement": "c19orf66 expression by western blot", "setting": "[1]; bulk cells, 20 ng/mL doxycycline", "value": "observed"}, {"measurement": "induction of c19orf66 expression", "setting": "[1]; cells with viral vector carrying the inducible expression system (summary statement)", "value": "induce c 19orf16 expression"}, {"measurement": "c19orf66 expression by western blot", "setting": "[1]; clone 9 cells, 10 ng/mL doxycycline", "value": "observed"}, {"measurement": "c19orf66 expression by western blot", "setting": "[1]; clone 21 cells, 5 ng/mL doxycycline", "value": "observed"}, {"measurement": "percentage of cells infected with SARS-CoV-2", "setting": "[2]", "value": "reduce the percentage of cells infected"}]}]}
